Measured values from paper PMC4007430.
No constants are given. Whether binding was seen depends on the method and setting. Some entries that bind do so weakly or less than the wild type.

By UniProt entry, the sequences of proteins in these tests, tags left out. Residues count along the entry.
UniProt P41597: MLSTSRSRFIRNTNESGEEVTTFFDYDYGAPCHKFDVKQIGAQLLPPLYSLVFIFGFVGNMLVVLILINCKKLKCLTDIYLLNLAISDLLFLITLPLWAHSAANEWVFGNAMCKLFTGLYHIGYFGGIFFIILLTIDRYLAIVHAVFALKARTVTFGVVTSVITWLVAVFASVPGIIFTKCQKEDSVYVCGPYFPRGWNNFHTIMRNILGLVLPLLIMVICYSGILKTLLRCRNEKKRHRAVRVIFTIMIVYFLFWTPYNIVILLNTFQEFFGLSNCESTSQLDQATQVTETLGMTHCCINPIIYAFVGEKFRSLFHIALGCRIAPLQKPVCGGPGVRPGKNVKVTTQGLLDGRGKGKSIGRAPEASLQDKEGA
UniProt P13500, residues 24-99: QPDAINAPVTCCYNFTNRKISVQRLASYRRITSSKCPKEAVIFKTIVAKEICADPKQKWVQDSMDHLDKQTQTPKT

Target: CCR2 expressed on THP1 cells (human (endogenous in THP-1)) (UniProt P41597)
Assay: flow cytometry on cells; competition: 60 ng/well Alexa-CCL2 with 1 μg ACKR2-N(s) or ACKR2-N(un-s), added together or precomplexed 15 min at room temperature in PBS, 1 h at 37 °C; HEK ACKR2 cells or THP1 cells; the chemokine and the receptor on cells; only the binder purified

**Q.** Which binding does the source give for “CCL2 labeled with Alexa Fluor 647 (from UniProt P13500 24-99) (ligand)” here?
**A.** The binding was “binds”.
